PubChem BioAssay AID1224826, NIAID, 2016

Screen: 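Regulators of Tlr4 signalling leading to Tnf-alpha expression in macrophages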 (primary screen)
Cells: RAW264.7 G9 macrophages from mouse bearing reporters for p65 (GFP) and the Tnf promoter (mCherry)
Knock-down reagent: siRNA pool against mouse genes, 100 nM
Duration: 16 h of LPS stimulation, after 2 days of siRNA transfection
Treatment: bacterial lipopolysaccharide (Salmonella minnesota R595), 10 ng/ml
Read-out: 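Nuclear mCherry signal of the Tnf promoter reporter measured by imaging after background removal, scaled to each plate median and turned into robust z-scores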
Scale: Tnf reporter robust z-score: higher = stronger Tnf promoter reporter signal after LPS; Tnf reporter intensity: higher = stronger Tnf promoter reporter signal
Hit rule: 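a well counts as active at a score of -1.3 or below (Tlr4 knock-down control median) or above 3 (raised signal); controls and wells holding fewer than 50 cells are excluded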
Meaning of the calls: active = Tnf reporter clearly lowered or raised; inactive = no clear change in Tnf reporter
The whole screen tested about 17,000 reagents; shown is a random part of them. About 1,110 of all reagents (6.6%) were called active. 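Active means lowered or raised reporter signal; replicate intensities are raw and not normalised per plate.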 Unmarked entries are inactive. Not all columns of the deposit are shown.

| Gene | Tnf reporter robust z-score | fewer than 50 cells in well | Tnf reporter intensity, replicate 1 |
| --- | --- | --- | --- |
| Dglucy (D-glutamate cyclase) | -0.94 | enough cells in well | 139 |
| Twnk (twinkle mtDNA helicase) | -0.55 | enough cells in well | 179 |
| Col1a2 (collagen, type I, alpha 2) | -0.46 | enough cells in well | 199 |
| Fastkd5 (FAST kinase domains 5) | 0.49 | enough cells in well | 189 |
| Khdrbs3 | 2.62 | enough cells in well | 402 |
| Lrp2bp (Lrp2 binding protein) | – | fewer than 50 cells per well; well left out of calls | 166 |
| Gprin1 (G protein-regulated inducer of neurite outgrowth 1) | – | fewer than 50 cells per well; well left out of calls | 98.1 |
| Abcc5 (ATP-binding cassette, sub-family C member 5) | -1.14 | enough cells in well | 121 |
| Tekt1 (tektin 1) | – | fewer than 50 cells per well; well left out of calls | 31.1 |
| Acads (acyl-Coenzyme A dehydrogenase, short chain) | 0.35 | enough cells in well | 190 |
| Galns (galactosamine (N-acetyl)-6-sulfatase) | -0.06 | enough cells in well | 245 |
| Slc14a1 | -1.36 (active) | enough cells in well | 129 |
| Pde6d (phosphodiesterase 6D, cGMP-specific, rod, delta) | -0.23 | enough cells in well | 211 |

The list goes on (2 carried over from the part before).
| Gene | Tnf reporter robust z-score | fewer than 50 cells in well | Tnf reporter intensity, replicate 1 |
| --- | --- | --- | --- |
| Slc14a1 | -1.36 (active) | enough cells in well | 129 |
| Pde6d (phosphodiesterase 6D, cGMP-specific, rod, delta) | -0.23 | enough cells in well | 211 |
| Nr0b1 (nuclear receptor subfamily 0, group B, member 1) | 0.52 | enough cells in well | 315 |
| Sstr4 (somatostatin receptor 4) | -0.33 | enough cells in well | 305 |
| Aifm1 (apoptosis-inducing factor, mitochondrion-associated 1) | 0.25 | enough cells in well | 233 |
| Dlat (dihydrolipoamide S-acetyltransferase) | -0.66 | enough cells in well | 146 |
| Zbtb3 (zinc finger and BTB domain containing 3) | -0.29 | enough cells in well | 113 |
| Pgap1 (post-GPI attachment to proteins 1) | 0.64 | enough cells in well | 182 |
| Rps3 (ribosomal protein S3) | -1.44 (active) | enough cells in well | 147 |
| Tagln2 (transgelin 2) | -0.17 | enough cells in well | 219 |
| Chd3 (chromodomain helicase DNA binding protein 3) | -1.04 | enough cells in well | 116 |
| Or8j3 (olfactory receptor family 8 subfamily J member 3) | 2.29 | enough cells in well | 319 |
| Ap4s1 (adaptor-related protein complex AP-4, sigma 1) | -0.87 | enough cells in well | 161 |
